Experimental data taken from the supplement of paper PMC5949888.
Most values lie at the floor of the assay. Slopes are relative: functional sequences can read slightly below zero.

The substances below were run on Saccharomyces cerevisiae PS128 hsf1 delta, HSF1(1-493) fusion (assay: growth estimate (transactivation domain function in HSF1 fusion, heat-shock survival) (a.u. (slope of normalised read count over time)); higher = stronger growth at 37°C, i.e. more transactivation activity). Settings: library: random library.
SYMPTTRH was tested, and the growth estimate was < -0.25. In the case of KFLENLG, the growth estimate is reported as < -0.25. In the case of DQLPRMLEVE, the growth estimate is reported as < -0.25. In the case of FNQIA, the growth estimate is reported as < -0.25. With GIGDPSRPSNSVCA the growth estimate was < -0.25. With QPKGEDEV the growth estimate was -0.245. In the case of SRFQFLHFPIV, the growth estimate is reported as < -0.25. For WFRWAMRCLFDVMFINSRGV, the growth estimate was < -0.25. With YIIVEAAIALGSHGSIGVEI the growth estimate was < -0.25. With CSCGIDGRPCVRVGDVEKTG the growth estimate was < -0.25. In the case of SLAALYSHRASVLWLHVQV, the growth estimate is reported as < -0.25. With MGPSRLGWVLWLCITELIEG the growth estimate was < -0.25. MLILITHGFAV was tested, and the growth estimate was < -0.25. For NSVSLVFALGGR, the growth estimate was < -0.25. For FGPSSPEMQRTWI, the growth estimate was < -0.25. With TSGGPGAW the growth estimate was < -0.25. In the case of GWEDLT, the growth estimate is reported as < -0.25. For RLLAMSIIKLPNWNTVPDGR, the growth estimate was < -0.25. VEWS was tested, and the growth estimate was < -0.25. In the case of AENSTEQNVARPRITKVFFR, the growth estimate is reported as < -0.25. In the case of RQG, the growth estimate is reported as < -0.25. LLHRSGDAKLSDWGCCLTVS was tested, and the growth estimate was < -0.25. With HKSPITLGTRSSNESLACCP the growth estimate was < -0.25. With FWSEKALLPVRGFDAALGGL the growth estimate was < -0.25. In the case of CLV, the growth estimate is reported as < -0.25. In the case of EAPLRTYYKVP, the growth estimate is reported as < -0.25. In the case of GTGRLIGTVV, the growth estimate is reported as < -0.25. In the case of IFTGSPE, the growth estimate is reported as < -0.25. With ERPSTQ the growth estimate was < -0.25. EFGLAKWNGGP was tested, and the growth estimate was < -0.25. THIGKYE was tested, and the growth estimate was < -0.25. In the case of ADLGILSGQSSDTWTVSIDT, the growth estimate is reported as < -0.25. With SFWQHGA the growth estimate was < -0.25. In the case of TQIVQLSFE, the growth estimate is reported as < -0.25. In the case of LNPSRAWFIAGMVIFWLTPR, the growth estimate is reported as < -0.25. TDSPHAVLAPTMLGSIRGGH was tested, and the growth estimate was < -0.25. In the case of GVSQWFVSSISKRVIRGARS, the growth estimate is reported as < -0.25. SCIAR was tested, and the growth estimate was < -0.25. For RGECVLSDLNGSKDDDNAPS, the growth estimate was -0.243. In the case of SKEQSARYVAMGRDVRWCGK, the growth estimate is reported as < -0.25. With LVRTLILAPGVKLFLELSGY the growth estimate was < -0.25. For SLTPNGLVRSA, the growth estimate was < -0.25. With CGQRRI the growth estimate was < -0.25. For GPLHFYTEERR, the growth estimate was < -0.25. ILYLRGFSRCTRLFDLFAKR was tested, and the growth estimate was < -0.25. SIYCPLDSIFFTGVGMILTL was tested, and the growth estimate was < -0.25. With RHRI the growth estimate was < -0.25. TLGPVYYGRTVYTVVHFR was tested, and the growth estimate was < -0.25. ERAGLITRRVVHRA was tested, and the growth estimate was < -0.25. For VSWWFTYAPSFLG, the growth estimate was < -0.25. For ESTEASECWVCGTFG, the growth estimate was < -0.25. With QIGLVGFSTILLEEGVWWGC the growth estimate was < -0.25. In the case of RSGYADGVLRSDSVQEGIYH, the growth estimate is reported as < -0.25. With PPLVRVDRRPRYCYICCTRD the growth estimate was < -0.25. Work on RNNIVLTHYRVHLFTFYNKF yielded a growth estimate of -0.243. In the case of ITVRRRATRVHDQPRVN, the growth estimate is reported as < -0.25. With GTKRLEVFDLTYTLRVLLRP the growth estimate was < -0.25. For VIIVRHQIKNVFRI, the growth estimate was < -0.25. With RPKHDLSKGASLSE the growth estimate was < -0.25. In the case of LSQPGYKA, the growth estimate is reported as < -0.25. In the case of VLCFRARRGS, the growth estimate is reported as < -0.25. With CCHDLGSAKDYLFSLLMSQG the growth estimate was < -0.25. EKWGRRFLHGTLC was tested, and the growth estimate was < -0.25. For TWFPLFSLSLDDVPSHGIKR, the growth estimate was < -0.25. NRTYRNQEDPVIT was tested, and the growth estimate was < -0.25. With VCPTG the growth estimate was < -0.25. For IHS, the growth estimate was < -0.25. GRLGHVDFACELGGSQAPR showed a growth estimate of -0.19. For ISRQKTISGRRY, the growth estimate was < -0.25. For RCLGGPNSRGRTSVAGRIPR, the growth estimate was < -0.25. With NVLCGCRPGWYCRASEGSGW the growth estimate was < -0.25. In the case of RVRKQVVVSRRQCIGPLVTD, the growth estimate is reported as < -0.25. NMTVFMLFARC was tested, and the growth estimate was < -0.25. GRRYLDRYTDRNGSSTS was tested, and the growth estimate was < -0.25. In the case of WVYWVRKFGHSRAYAYLQFW, the growth estimate is reported as < -0.25. For NYFHVSSCVVEITDSVSASS, the growth estimate was < -0.25. With IRWGLDPDTAVTRCIDS the growth estimate was -0.25. In the case of RVCWKA, the growth estimate is reported as < -0.25. SFPVPHLWRLIGRRP was tested, and the growth estimate was < -0.25. For FVRVTIFGLIGRVVPFARFV, the growth estimate was < -0.25. With RLHL the growth estimate was < -0.25. In the case of PEYFVAFANPINSGGGGCGS, the growth estimate is reported as < -0.25. With IRVKETLPVPSGMQVLGKFT the growth estimate was < -0.25. In the case of RRLRTSRQS, the growth estimate is reported as < -0.25. With PTSPTQNGVCRAHFCRENAL the growth estimate was -0.246. For GLKF, the growth estimate was < -0.25. For GVLDRRSALTAPRINSARDT, the growth estimate was < -0.25. In the case of RSH, the growth estimate is reported as < -0.25. For QWSYKRGLSILGAVLLWGVF, the growth estimate was < -0.25. In the case of FLYKVHTHTTMHVPAHAHVG, the growth estimate is reported as < -0.25. With VPYIQGLPTAA the growth estimate was < -0.25. MLINWEYVRIMPYGFPLFLD was tested, and the growth estimate was < -0.25. With GWVGNKAHLF the growth estimate was < -0.25. In the case of PGTGGYTRDNFFGDPFLIAF, the growth estimate is reported as < -0.25. With VQP the growth estimate was < -0.25. In the case of VPSTA, the growth estimate is reported as < -0.25. VLR was tested, and the growth estimate was < -0.25. In the case of RKAWWWDVTQ, the growth estimate is reported as < -0.25. For PPRYQRVFVRTIWASETRLI, the growth estimate was < -0.25. For GTGGRGGAWRVLNDLSGHQL, the growth estimate was < -0.25. For HTSRCHRRSLFPKVQKYEAN, the growth estimate was < -0.25. For FQDTEYCLGRVGNRQRFRVL, the growth estimate was < -0.25. In the case of GLLEENCTNCGKS, the growth estimate is reported as < -0.25. With EHEVFS the growth estimate was < -0.25. With PHWT the growth estimate was < -0.25. With HAISKHVISESSRPARFRAV the growth estimate was < -0.25. With ARWSESYTWSALRTLLLGGA the growth estimate was < -0.25. SDRWGRRWR was tested, and the growth estimate was < -0.25. IAWASLCPGVRTSLGALTPL was tested, and the growth estimate was < -0.25. In the case of SEENALDAVFTWQCPTSGKH, the growth estimate is reported as < -0.25. With LMVS the growth estimate was < -0.25. For NYGPTGSESRLAV, the growth estimate was < -0.25. QDVRMIKLAILRFFLSLRKS was tested, and the growth estimate was < -0.25. KAQLIGAIHRVGNASPSASG was tested, and the growth estimate was < -0.25. In the case of RVGGQPA, the growth estimate is reported as < -0.25. With ADRTRTHK the growth estimate was < -0.25. In the case of SSNSGNHGT, the growth estimate is reported as < -0.25. In the case of VRLSVHGVCPLTAIWVDLSP, the growth estimate is reported as < -0.25. For AFTLSGNRGESWQFQWCIDT, the growth estimate was < -0.25. For HWGV, the growth estimate was < -0.25. CIGLLCNNIGSRIRCIASYI was tested, and the growth estimate was < -0.25. With GHQRPDPVPQGITKHSRTSP the growth estimate was < -0.25. In the case of LCRRPRK, the growth estimate is reported as < -0.25. For MFVSDSVSKFG, the growth estimate was < -0.25. In the case of YQRESRVN, the growth estimate is reported as < -0.25. With TVSVLMANQKPLGLGQSIRS the growth estimate was < -0.25. With RCCPLEGTRPWDR the growth estimate was < -0.25. With YKESSRAARLLSNQTK the growth estimate was < -0.25. For CRIP, the growth estimate was < -0.25. For WHKHSNSADGA, the growth estimate was < -0.25. LFGRKADRLQRWMRSTGTRE was tested, and the growth estimate was < -0.25. Work on FMRVSFAKLASDLGRGDIEW yielded a growth estimate of -0.246. In the case of HMGYASKLANNGTVSHAEAE, the growth estimate is reported as < -0.25. With RVGVREFMRGIGCGTSSRAP the growth estimate was < -0.25. For VQPYSGFNVRPSG, the growth estimate was < -0.25. With CDLRDLTSVPRRRCVASKIL the growth estimate was < -0.25. In the case of MPSFDDDKIEAICEFD, the growth estimate is reported as < -0.25. With WIEHRIGLWHSARVFQLDSS the growth estimate was < -0.25. ALWTYRFDGHQREHVDWNCK was tested, and the growth estimate was < -0.25. With IIRI the growth estimate was < -0.25. RHAVRTTFLCVIYFSLRLVE gave a growth estimate of -0.245. In the case of RCIAADCRDHDGSCTRR, the growth estimate is reported as < -0.25. With IQFVQLLRGYHSES the growth estimate was < -0.25. In the case of RQGGDGSQASCGVEPSRILT, the growth estimate is reported as < -0.25. For FLLRV, the growth estimate was < -0.25. In the case of TNGSPLRRISQCRRIKS, the growth estimate is reported as < -0.25. LANTCQSFELIKSDLMTSVG was tested, and the growth estimate was < -0.25. For RFDAWISVVKS, the growth estimate was < -0.25. With RPHLSWASMVVTGCLISLFG the growth estimate was < -0.25. RSCLG was tested, and the growth estimate was < -0.25. For THPGRSFRGFNYALPAGLR, the growth estimate was < -0.25. In the case of CARQPHLNYTDGGRVTIGKD, the growth estimate is reported as < -0.25. For INGHYESACTHNDKDPKGPG, the growth estimate was < -0.25. RPGNRMGESTNDVTLASSTE was tested, and the growth estimate was < -0.25. In the case of QYYLQSACFVPRDTVVAPLT, the growth estimate is reported as < -0.25. In the case of EEITI, the growth estimate is reported as < -0.25. In the case of GGDARDPTVSFLIRCIPSSI, the growth estimate is reported as < -0.25. In the case of YHISKSEPRGIQR, the growth estimate is reported as < -0.25. In the case of FTIAAYFWEDCCCQSSSGQA, the growth estimate is reported as < -0.25.
